Experiment: general procedure: Fmoc solid-phase peptide synthesis; CTC Resin (1.17 mmol/g)
Conditions: conjugation step, bicyclic, sequence written open

## MMAE-PABC-Cit-Val-Glutaryl-BCY8234
  conjugation yield: 45.19% yield
Run 1
  final purity (method not given): 99.30% purity
Run 2
  final purity (method not given): 99.60%

From patent publication US11453702B2 (priority 2018, dated 2022)
